Results from the supplement of paper PMC10849652.
Some of the results follow.

Chains of the proteins cited; added tags and fusions are not shown. Lines headed by an entry give the natural chain unless they say otherwise; changes in a name come on top.
UniProt Q96DM3: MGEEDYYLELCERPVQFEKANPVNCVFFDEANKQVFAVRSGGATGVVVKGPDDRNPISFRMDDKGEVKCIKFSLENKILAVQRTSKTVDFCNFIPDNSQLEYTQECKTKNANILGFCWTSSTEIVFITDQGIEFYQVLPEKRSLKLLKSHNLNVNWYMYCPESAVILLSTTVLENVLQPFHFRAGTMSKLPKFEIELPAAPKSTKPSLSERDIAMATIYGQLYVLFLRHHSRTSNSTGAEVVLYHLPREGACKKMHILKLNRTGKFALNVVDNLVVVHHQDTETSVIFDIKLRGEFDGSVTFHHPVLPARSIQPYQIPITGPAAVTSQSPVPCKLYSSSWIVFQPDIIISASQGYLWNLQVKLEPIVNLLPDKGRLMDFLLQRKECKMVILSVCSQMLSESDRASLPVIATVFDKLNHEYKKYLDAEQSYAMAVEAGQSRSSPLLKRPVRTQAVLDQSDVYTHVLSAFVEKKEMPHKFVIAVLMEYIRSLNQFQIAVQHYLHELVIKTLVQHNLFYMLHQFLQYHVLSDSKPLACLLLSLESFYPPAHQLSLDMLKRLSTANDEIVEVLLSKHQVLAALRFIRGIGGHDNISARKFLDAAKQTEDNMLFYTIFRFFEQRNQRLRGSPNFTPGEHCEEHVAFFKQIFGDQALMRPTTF
UniProt Q8NC42: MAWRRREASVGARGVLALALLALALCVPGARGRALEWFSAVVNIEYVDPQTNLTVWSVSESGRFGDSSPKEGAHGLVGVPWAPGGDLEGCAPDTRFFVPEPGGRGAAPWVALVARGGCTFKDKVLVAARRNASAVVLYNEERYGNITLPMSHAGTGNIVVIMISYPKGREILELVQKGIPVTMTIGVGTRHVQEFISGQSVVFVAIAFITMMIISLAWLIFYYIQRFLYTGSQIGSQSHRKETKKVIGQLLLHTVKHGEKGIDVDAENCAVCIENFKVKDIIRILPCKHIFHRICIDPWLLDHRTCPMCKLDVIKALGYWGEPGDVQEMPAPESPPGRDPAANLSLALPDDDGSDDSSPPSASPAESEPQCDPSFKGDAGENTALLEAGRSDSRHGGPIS
UniProt P60602: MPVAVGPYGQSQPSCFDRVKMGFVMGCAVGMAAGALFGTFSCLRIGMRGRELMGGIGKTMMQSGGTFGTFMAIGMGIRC
UniProt Q9UBS8: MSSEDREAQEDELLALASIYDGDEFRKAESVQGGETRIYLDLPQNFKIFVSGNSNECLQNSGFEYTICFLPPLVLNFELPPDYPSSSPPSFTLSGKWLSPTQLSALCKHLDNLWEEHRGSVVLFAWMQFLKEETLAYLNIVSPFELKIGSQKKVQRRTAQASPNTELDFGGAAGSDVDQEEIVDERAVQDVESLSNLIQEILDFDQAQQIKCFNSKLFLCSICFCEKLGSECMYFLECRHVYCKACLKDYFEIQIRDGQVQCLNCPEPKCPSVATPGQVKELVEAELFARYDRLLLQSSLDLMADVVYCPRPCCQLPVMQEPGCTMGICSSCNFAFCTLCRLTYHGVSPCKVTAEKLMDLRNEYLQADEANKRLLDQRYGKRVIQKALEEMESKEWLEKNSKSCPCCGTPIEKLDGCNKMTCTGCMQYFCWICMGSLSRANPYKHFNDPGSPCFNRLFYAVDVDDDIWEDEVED
UniProt P0C7M4: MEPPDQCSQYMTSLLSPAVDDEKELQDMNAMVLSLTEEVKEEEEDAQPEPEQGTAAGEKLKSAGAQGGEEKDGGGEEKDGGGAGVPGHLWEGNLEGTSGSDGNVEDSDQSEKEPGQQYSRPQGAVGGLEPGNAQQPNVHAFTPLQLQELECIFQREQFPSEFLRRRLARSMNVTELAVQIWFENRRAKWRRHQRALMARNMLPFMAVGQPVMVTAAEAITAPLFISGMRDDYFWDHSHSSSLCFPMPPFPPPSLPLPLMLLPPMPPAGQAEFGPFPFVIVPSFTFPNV
UniProt Q5TA31: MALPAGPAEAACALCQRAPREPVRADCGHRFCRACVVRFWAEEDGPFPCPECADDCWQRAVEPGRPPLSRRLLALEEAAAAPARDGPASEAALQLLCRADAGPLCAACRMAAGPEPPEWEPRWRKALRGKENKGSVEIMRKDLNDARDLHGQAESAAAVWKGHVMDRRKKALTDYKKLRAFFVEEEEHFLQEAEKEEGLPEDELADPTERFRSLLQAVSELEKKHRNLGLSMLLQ
UniProt Q5EBL4: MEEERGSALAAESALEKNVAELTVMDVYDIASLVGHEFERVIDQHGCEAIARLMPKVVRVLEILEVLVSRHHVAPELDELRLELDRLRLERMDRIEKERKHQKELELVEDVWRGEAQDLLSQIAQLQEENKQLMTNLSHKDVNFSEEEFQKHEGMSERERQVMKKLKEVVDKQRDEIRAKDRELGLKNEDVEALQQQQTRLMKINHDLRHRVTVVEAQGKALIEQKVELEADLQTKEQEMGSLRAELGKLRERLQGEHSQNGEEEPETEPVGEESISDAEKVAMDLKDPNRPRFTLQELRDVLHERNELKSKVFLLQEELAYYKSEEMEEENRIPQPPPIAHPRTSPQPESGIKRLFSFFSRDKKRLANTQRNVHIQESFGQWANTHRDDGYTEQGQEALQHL
UniProt O14730: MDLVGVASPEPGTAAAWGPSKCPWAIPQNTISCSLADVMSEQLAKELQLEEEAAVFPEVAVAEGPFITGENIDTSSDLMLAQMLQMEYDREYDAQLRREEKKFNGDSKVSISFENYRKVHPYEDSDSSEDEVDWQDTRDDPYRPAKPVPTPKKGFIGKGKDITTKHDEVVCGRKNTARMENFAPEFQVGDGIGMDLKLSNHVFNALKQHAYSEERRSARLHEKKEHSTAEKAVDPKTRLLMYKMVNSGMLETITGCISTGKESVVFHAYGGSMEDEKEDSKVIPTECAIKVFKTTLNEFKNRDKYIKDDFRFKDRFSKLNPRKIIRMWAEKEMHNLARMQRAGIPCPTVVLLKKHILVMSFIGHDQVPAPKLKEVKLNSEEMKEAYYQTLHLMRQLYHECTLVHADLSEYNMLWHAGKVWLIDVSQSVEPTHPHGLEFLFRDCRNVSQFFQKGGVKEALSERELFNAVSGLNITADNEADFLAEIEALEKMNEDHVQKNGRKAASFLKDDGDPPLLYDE
UniProt Q96K19: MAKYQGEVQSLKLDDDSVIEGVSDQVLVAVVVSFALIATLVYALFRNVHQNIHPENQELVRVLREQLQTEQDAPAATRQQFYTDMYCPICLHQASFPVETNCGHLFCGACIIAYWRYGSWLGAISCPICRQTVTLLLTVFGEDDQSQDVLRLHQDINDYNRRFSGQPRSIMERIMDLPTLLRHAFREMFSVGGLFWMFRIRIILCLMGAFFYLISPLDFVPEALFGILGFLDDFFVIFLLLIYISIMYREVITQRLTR
UniProt Q9UBF6, whole entry, looked up: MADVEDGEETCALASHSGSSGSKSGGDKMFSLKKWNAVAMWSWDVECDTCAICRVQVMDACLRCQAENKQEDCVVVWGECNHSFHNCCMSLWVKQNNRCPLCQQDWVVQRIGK
UniProt P34096: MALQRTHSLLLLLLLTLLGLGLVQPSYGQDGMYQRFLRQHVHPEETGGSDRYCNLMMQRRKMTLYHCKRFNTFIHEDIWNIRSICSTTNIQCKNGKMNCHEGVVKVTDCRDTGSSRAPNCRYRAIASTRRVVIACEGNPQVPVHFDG

Tests used:
Assay in all cases: log2 fold change, soluble protein after heating vs DMSO (PISA); higher = thermal stabilisation; K562 lysate, 10 uM; active = over 0.2 and 3.5 SD of the protein, either way, in both replicates (recomputed)
erlotinib = compound: C#Cc1cccc(Nc2ncnc3cc(OCCOC)c(OCCOC)cc23)c1 [erlotinib]
In short: (§1)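 Values give the log-two fold change in thermal stability against solvent controls, from duplicates. Crude K562 extract at 1 mg/mL protein, made by dounce homogenisation in PBS pH 7.4 with 1 mM MgCl2, was treated with 10 μM compound for 30 min. After 3 min heating across 48°C-58°C, aliquots were pooled, adjusted to 0.5% NP-40 at 4°C and centrifuged at 21,000xg for 90 min. The supernatant was measured by TMTpro 16plex LC-MS/MS with channel sums equalised.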

[1] = compound: C/C(=N\NC(=O)C1=CC(=CC=C1)S(=O)(=O)N2CCOCC2)/C3=C(C=CC(=C3)Cl)O
In short: as §1

[2] = compound: C1=CC(=CC=C1C2=NC3=C(N2)C=C(C=C3)C(=O)N)OC4=CC=C(C=C4)Cl
In short: as §1

[3] = compound: C1=CC2=C(C=CC(=C2)/C=C\3/C(=O)NC(=NCC4=CC=CS4)S3)N=C1
In short: as §1

[4] = compound: C1=CC2=NC=CN=C2C=C1/C=C/3\C(=O)NC(=O)S3
In short: as §1

[5] = compound: C1=CC=C(C=C1)C2=NC(=C(N2)C3=CC=NC=C3)C4=CC(=C(C=C4)Cl)O
In short: as §1

[6] = compound: C1=CC=C2C(=C1)C3=NNC4=CC=CC(=C43)C2=O
In short: as §1

[7] = compound: C1CCN(C1)C(=O)NC2=CC=CC(=C2)NC3=NC=C(C(=N3)NCCC4=CN=CN4)Br
In short: as §1

[8] = compound: C1CN(CCC1(CC2=CC=C(C=C2)Cl)N)C3=NC=NC4=C3C=CN4
In short: as §1

IRAK-1-4 Inhibitor I = compound: C1COCCN1CCN2C3=CC=CC=C3N=C2NC(=O)C4=CC(=CC=C4)[N+](=O)[O-] [IRAK-1-4 Inhibitor I]
In short: as §1

ibrutinib = compound: C=CC(=O)N1CCC[C@@H](n2nc(-c3ccc(Oc4ccccc4)cc3)c3c(N)ncnc32)C1 [ibrutinib]
In short: as §1

[9] = compound: CC(=O)c1cnc2ccc(-c3cc(Cl)c(O)c(Cl)c3)nc2c1N[C@H]1CC[C@H](CN(C)C)CC1
In short: as §1

ralimetinib = compound: CC(C)(C)Cn1c(N)nc2ccc(-c3[nH]c(C(C)(C)C)nc3-c3ccc(F)cc3)nc21 [ralimetinib]
In short: as §1

[10] = compound: CC(C)(O)CC(=O)NCCn1ccc2ncnc(Nc3ccc(Oc4cccc(C(F)(F)F)c4)c(Cl)c3)c21
In short: as §1

[11] = compound: CC(C)C1=C2N=C(C=C(N2N=C1)NCC3=CC=CC=C3)NCCCCCCN
In short: as §1

[12] = compound: CC1=C(C(CC(=O)N1)C2=CC=C(C=C2)C(F)(F)F)C(=O)NC3=C(C=C4C(=C3)C=NN4)F
In short: as §1

[13] = compound: CC1=C(C2=C(C=C1)C(=O)C3=CC=CC=C3N2CCCN)C
In short: as §1

[14] = compound: CC1=C(C=C(C=C1)NC(=O)C2=CC(=CC=C2)C(C)(C)C#N)NC3=CC4=C(C=C3)N=CN(C4=O)C
In short: as §1

[15] = compound: CC1=C(C=C(C=C1)NC(=O)C2=CC(=CC=C2)N(C)C)NC(=O)C3=CC=C(C=C3)O
In short: as §1

[16] = compound: CC1=CC=C(C=C1)SC2=C3C=C(SC3=CN=C2)C(=O)N
In short: as §1

Measured: log2 fold change

RMC1 (UniProt Q96DM3)
inactive: erlotinib 0.015 | [1] -0.056 | [2] 0.017 | [3] -0.06 | [4] 0.004 | [5] -0.008 | [6] -0.054 | [7] -0.001 | [8] 0.035 | IRAK-1-4 Inhibitor I 0.006 | ibrutinib -0.004 | [9] 0.018 | ralimetinib 0.03 | [10] -0.024 | [11] -0.001 | [12] -0.017 | [13] -0.018 | [14] 0.009 | [15] 0.005 | [16] 0.027

RNF149 (UniProt Q8NC42)
inactive: erlotinib -0.044 | [1] -0.03 | [2] 0.003 | [3] -0.046 | [4] 0.135 | [5] -0.021 | [6] -0.031 | IRAK-1-4 Inhibitor I 0.068 | ibrutinib 0.04 | [9] 0.023 | ralimetinib 0.044 | [10] -0.041 | [11] -0.005 | [12] -0.021 | [13] 0.001 | [14] -0.014 | [15] 0.113 | [16] 0.06

ROMO1 (UniProt P60602)
inactive: erlotinib 0.056 | [1] 0.038 | [2] 0.097 | [3] 0.166 | [5] -0.021 | [6] 0.044 | [7] -0.047 | [8] -0.047 | IRAK-1-4 Inhibitor I -0.053 | [9] 0.027 | ralimetinib 0.225 | [10] -0.007 | [11] -0.066 | [12] -0.008 | [13] -0.033 | [14] 0.032 | [15] 0.199 | [16] 0.075

RNF14 (UniProt Q9UBS8)
inactive: erlotinib 0.064 | [1] 0.011 | [2] 0.048 | [3] 0.008 | [4] -0.028 | [5] 0.009 | [6] -0.02 | [7] -0.02 | [8] 0.005 | IRAK-1-4 Inhibitor I 0.005 | ibrutinib -0.022 | [9] 0.008 | ralimetinib -0.035 | [10] -0.007 | [11] 0.007 | [12] -0.013 | [13] 0.009 | [14] 0.015 | [15] 0 | [16] -0.023

RHOXF2B (UniProt P0C7M4)
inactive: erlotinib -0.153 | [1] 0.077 | [2] -0.181 | [3] 0.012 | [5] 0.031 | [6] 0.194 | IRAK-1-4 Inhibitor I 0.07 | [9] -0.05 | ralimetinib -0.016 | [10] -0.052 | [11] 0.221 | [13] -0.117 | [15] -0.053 | [16] 0.107

RPL23 (UniProt P62829)
inactive: erlotinib -0.025 | [1] -0.158 | [2] 0.023 | [3] -0.003 | [4] -0.015 | [5] 0.007 | [6] -0.015 | [7] 0.007 | [8] 0.004 | IRAK-1-4 Inhibitor I 0.006 | ibrutinib -0.048 | [9] -0.016 | ralimetinib -0.006 | [10] -0.018 | [11] 0.014 | [12] 0 | [13] -0.066 | [14] 0.011 | [15] 0.011 | [16] 0.01

RPL22 (UniProt P35268)
inactive: erlotinib 0.007 | [1] 0.04 | [2] -0.003 | [3] -0.036 | [4] -0.005 | [5] -0.01 | [6] -0.018 | [7] 0.037 | [8] -0.022 | IRAK-1-4 Inhibitor I 0.007 | ibrutinib -0.039 | [9] -0.002 | ralimetinib -0.044 | [10] -0.039 | [11] 0.022 | [12] -0.034 | [13] -0.034 | [14] -0.009 | [15] 0.001 | [16] 0.041

RNF187 (UniProt Q5TA31)
inactive: erlotinib -0.007 | [1] -0.01 | [2] 0.175 | [3] -0.056 | [4] -0.005 | [5] -0.029 | [6] -0.089 | [7] -0.081 | [8] 0.101 | IRAK-1-4 Inhibitor I -0.007 | ibrutinib 0.05 | ralimetinib -0.031 | [10] -0.054 | [11] 0.055 | [12] -0.024 | [13] -0.035 | [14] 0.025 | [15] -0.039

RILPL1 (UniProt Q5EBL4)
inactive: erlotinib 0.002 | [1] 0.071 | [2] -0.001 | [3] -0.017 | [4] 0.018 | [5] -0.017 | [6] -0.01 | [7] 0.022 | [8] 0.008 | IRAK-1-4 Inhibitor I 0.009 | ibrutinib -0.018 | [9] -0.006 | ralimetinib -0.001 | [10] -0.018 | [11] -0.033 | [12] 0.058 | [13] -0.032 | [14] 0.006 | [15] -0.005 | [16] -0.012

RIOK3 (UniProt O14730)
inactive: erlotinib 0.043 | [1] -0.114 | [2] -0.057 | [3] 0.029 | [4] -0.011 | [5] 0.023 | [6] 0.092 | [7] 0.016 | [8] -0.006 | IRAK-1-4 Inhibitor I 0.016 | ibrutinib -0.021 | [9] -0.013 | ralimetinib 0.055 | [10] 0 | [11] 0.054 | [12] -0.011 | [13] -0.023 | [14] 0.001 | [15] 0.011 | [16] -0.093

RPL14 (UniProt P50914)
inactive: erlotinib -0.021 | [1] -0.048 | [2] 0.006 | [3] -0.011 | [4] 0.017 | [5] 0.035 | [6] 0.033 | [7] 0.062 | [8] -0.003 | IRAK-1-4 Inhibitor I -0.004 | ibrutinib 0.011 | [9] 0.008 | ralimetinib 0.034 | [10] 0.002 | [11] -0.009 | [12] -0.008 | [13] 0 | [14] -0.061 | [15] 0.003 | [16] 0.054

RNF170 (UniProt Q96K19)
inactive: erlotinib 0.062 | [1] -0.018 | [2] -0.125 | [3] 0.136 | [4] 0.032 | [6] -0.577 | ibrutinib -0.006 | [9] 0.107 | [11] 0.084 | [12] 0.302 | [13] -0.035 | [16] -0.036

RPL24 (UniProt P83731)
inactive: erlotinib -0.039 | [1] -0.14 | [2] -0.003 | [3] 0 | [4] -0.009 | [5] 0.022 | [6] 0.016 | [7] 0.024 | [8] 0 | IRAK-1-4 Inhibitor I -0.009 | ibrutinib -0.056 | [9] -0.008 | ralimetinib -0.01 | [10] -0.02 | [11] 0.007 | [12] -0.01 | [13] -0.032 | [14] 0.005 | [15] 0.014 | [16] 0.016

RNF7 (UniProt Q9UBF6)
inactive: erlotinib 0.024 | [1] -0.039 | [2] -0.051 | [3] 0.01 | [4] 0.031 | [5] 0.005 | [6] -0.014 | [7] 0.04 | [8] -0.103 | IRAK-1-4 Inhibitor I -0.001 | ibrutinib 0.061 | [9] 0.029 | ralimetinib 0.006 | [10] -0.069 | [11] -0.046 | [12] 0.035 | [13] -0.036 | [14] 0.075 | [15] 0.039 | [16] 0.002

Reprinted at random: two records from the list.
RNF170 (UniProt Q96K19)
inactive: erlotinib 0.062 | [1] -0.018 | [2] -0.125 | [3] 0.136 | [4] 0.032 | [6] -0.577 | ibrutinib -0.006 | [9] 0.107 | [11] 0.084 | [12] 0.302 | [13] -0.035 | [16] -0.036

RNF7 (UniProt Q9UBF6)
inactive: erlotinib 0.024 | [1] -0.039 | [2] -0.051 | [3] 0.01 | [4] 0.031 | [5] 0.005 | [6] -0.014 | [7] 0.04 | [8] -0.103 | IRAK-1-4 Inhibitor I -0.001 | ibrutinib 0.061 | [9] 0.029 | ralimetinib 0.006 | [10] -0.069 | [11] -0.046 | [12] 0.035 | [13] -0.036 | [14] 0.075 | [15] 0.039 | [16] 0.002

Next part:

RPL28 (UniProt P46779)
inactive: erlotinib -0.012 | [1] -0.104 | [2] 0.006 | [3] -0.009 | [4] -0.037 | [5] 0.019 | [6] 0.016 | [7] -0.003 | [8] 0 | IRAK-1-4 Inhibitor I -0.02 | ibrutinib -0.026 | [9] -0.011 | ralimetinib -0.003 | [10] -0.005 | [11] 0.006 | [12] -0.038 | [13] -0.066 | [14] -0.021 | [15] 0.012 | [16] 0.026

RNASE4 (UniProt P34096)
inactive: erlotinib -0.096 | [1] -0.012 | [2] 0.06 | [3] 0.056 | [5] -0.006 | [6] -0.015 | [7] -0.174 | [8] 0.16 | IRAK-1-4 Inhibitor I 0.057 | [9] -0.03 | ralimetinib 0.045 | [10] -0.072 | [11] -0.104 | [12] 0 | [13] -0.018 | [14] 0.003 | [15] 0.076 | [16] -0.017

RPL26L1 (UniProt Q9UNX3)
inactive: erlotinib -0.011 | [1] -0.047 | [2] -0.054 | [3] -0.001 | [4] -0.025 | [5] 0.03 | [6] 0.067 | [7] 0.055 | [8] -0.028 | IRAK-1-4 Inhibitor I -0.016 | ibrutinib -0.01 | [9] 0.029 | ralimetinib -0.024 | [10] 0.031 | [11] 0.005 | [12] -0.012 | [13] -0.039 | [14] -0.038 | [15] -0.018 | [16] 0.038
